The record followed here is article doi:10.1101/074989.

Sequences of proteins named here, by UniProt entry; tags and fusion partners are left off.
UniProt O64645: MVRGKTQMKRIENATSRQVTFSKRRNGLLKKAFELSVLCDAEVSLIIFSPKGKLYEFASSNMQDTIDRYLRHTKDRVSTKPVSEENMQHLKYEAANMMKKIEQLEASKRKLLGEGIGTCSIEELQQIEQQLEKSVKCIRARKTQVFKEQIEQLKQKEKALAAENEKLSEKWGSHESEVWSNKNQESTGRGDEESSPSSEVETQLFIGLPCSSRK

These are yes or no findings as the source states them, for the method shown. Some results given as binding are weak or reduced against the parent protein; the word gives no strength.

The target of this experiment is SUPPRESSOR OF OVEREXPRESSION OF CONSTANS 1 (Arabidopsis thaliana) (Arabidopsis thaliana) (UniProt O64645). As to the kind of experiment: two-hybrid.

B1: AGL24 (Arabidopsis thaliana) (protein, UniProt O82794 1-220)
chain: MAREKIRIKKIDNITARQVTFSKRRRGIFKKADELSVLCDADVALIIFSATGKLFEFSSSRMRDILGRYSLHASNINKLMDPPSTHLRLENCNLSRLSKEVEDKTKQLRKLRGEDLDGLNLEELQRLEKLLESGLSRVSEKKGECVMSQIFSLEKRGSELVDENKRLRDKLETLERAKLTTLKEALETESVTTNVSSYDSGTPLEDDSDTSLKLGLPSWE
In the case of B1, the binding entry is reported as “binds”.
